About 100 (0.03%) of roughly 330,000 compounds were called active. The shares of active, inactive and inconclusive entries below differ from those in the screen. Calls follow the shape of the dose curve; as a rule, active = well fitted inhibition curve with a large enough effect; inconclusive = small, poorly fitted or top-dose-only effect; inactive = flat fitted curve, though single readings scatter. Potencies beside an inconclusive call are fits to weak or partial responses and may not hold up.
tested on: Chaperonin Mm-Cpn (Methanococcus maripaludis); assay: Inhibitors of TCP-1 ring complex (TRiC) of Methanococcus maripaludis (MmCpn): qHTS; conditions: purified Mm-Cpn ATPase, ADP Transcreener TR-FRET; series mostly up to 76.9 µM; also: nearly all actives have a fitted effect of over 80% in size;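 as to Potency: enzyme at 25 nM with ATP substrate at 10 µM during the reaction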
In short: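 Eu-cryptate anti-ADP/ADP-d2 competition gives a ratio inversely related to ADP. Enzyme at 25 nM was pre-exposed to compound for 10 min, then given 10 uM ATP for 30 min, 37°C throughout.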
Potency is read from the fitted curve at half-maximal effect.

Potency, inactive:
O=C(Nc1cc(S(=O)(=O)N2CCOCC2)ccc1O)c1ccc2c(c1)S(=O)(=O)c1ccccc1C2=O
Cc1cc(N2CCC(C)CC2)nc(-n2nc(C)cc2C)n1

Potency, inconclusive:
COC(=O)c1c(-c2ccc(SC)cc2)sc2ccccc12 25.1 µM [inhibitor, partial curve, poor fit]
CC(C)CC(NC(N)=O)C(=O)OCC(=O)N(Cc1ccccc1)Cc1ccccc1 (configuration not stated) 44.7 µM [inhibitor, single point]
COc1cccc(-c2nc3ccc(O)cc3c(=O)o2)c1 17.8 µM [inhibitor, single point]
COC(=O)[C@H](Cc1ccccc1)NC(=O)N1Cc2ccccc2C[C@H]1C(=O)OC 22.4 µM [inhibitor, single point]
CN(C)S(=O)(=O)c1ccc(NC(=O)c2cc(-c3cccs3)nc3ccccc23)cc1 44.7 µM [inhibitor, partial curve, poor fit]
Cc1cc(C)n(CC2CC(=O)N(c3ccc(F)c(Cl)c3)C2=O)n1 (configuration not stated) 14.1 µM [inhibitor, single point]
CN(Cc1ccccc1)C(=O)COC(=O)C1CCN(S(=O)(=O)c2ccc3c(c2)OCCO3)CC1 15.8 µM [inhibitor, single point]
O=C(COC(=O)c1ccccc1Br)Nc1cc(S(=O)(=O)N2CCOCC2)ccc1N1CCCC1 79.4 µM [inhibitor, single point]
Cc1cc2cc(CNC(=O)c3cc4ccccc4o3)ccc2n1C 79.4 µM [inhibitor, partial curve, poor fit]
COc1ccccc1CNC(=O)c1cc2c(=O)[nH]c3ccccc3c2n1C 100 µM [inhibitor, single point]
COc1ccc(S(=O)(=O)N2CCCOC2CNC(=O)C(=O)NCc2ccncc2)cc1 (configuration not stated) 12.6 µM [inhibitor, single point]
O=C(O)CCNS(=O)(=O)c1ccccc1Br 50.1 µM [inhibitor, single point]
COC(=O)C1NN=C(C(=O)c2ccc(Br)cc2)C1c1cccc(Br)c1 (configuration not stated) 178 µM [inhibitor, partial curve, poor fit]
COC(=O)[C@H](CCSC)NC(=O)Nc1ccc(C)cc1C 63.1 µM [inhibitor, single point]
CC(=O)c1ccc(N2CCCCC2)c(F)c1 100 µM [inhibitor, single point]

Quoted at random: 2 entries already listed, in no set order.
Potency, inconclusive:
COc1ccccc1CNC(=O)c1cc2c(=O)[nH]c3ccccc3c2n1C 100 µM [inhibitor, single point]
COC(=O)[C@H](CCSC)NC(=O)Nc1ccc(C)cc1C 63.1 µM [inhibitor, single point]

Source: PubChem BioAssay AID504842 (National Center for Advancing Translational Sciences (NCATS), 2011)
